HELM strings list residues between dots; [ac] is acetyl, [am] amide, other brackets name non-standard units.
assay: general procedure: Fmoc solid-phase peptide synthesis; 2-chloro-trityl resin; HBTU/HOBt/DIPEA; conditions: whole synthesis, 214 nm

Final HPLC purity, >99%:
PEPTIDE1{[dF].C.F.[dW].[Lys(a)].T.C.[Thr-ol]}$PEPTIDE1,PEPTIDE1,2:R3-7:R3$$$V2.0
PEPTIDE1{[dF].C.F.[dW].[Lys(b)].T.C.[Thr-ol]}$PEPTIDE1,PEPTIDE1,2:R3-7:R3$$$V2.0
PEPTIDE1{[dF].C.F.[dW].[Lys(d)].T.C.[Thr-ol]}$PEPTIDE1,PEPTIDE1,2:R3-7:R3$$$V2.0

From EP4656654A1 (Qianhangjiang Pharmaceutical Co., Ltd., priority 2023, dated 2025)
